These are yes or no findings as the source states them, for the method shown. In cells and extracts the contact can be indirect. Some results given as binding are weak or reduced against the parent protein; the word gives no strength. Tags and fused reporters may be left off the sequences shown.
Molecular target: T1, GFP-tagged, RNAi-resistant wild-type SKOR1 (SKI family transcriptional corepressor 1) (human) (UniProt P84550)
T1 sequence: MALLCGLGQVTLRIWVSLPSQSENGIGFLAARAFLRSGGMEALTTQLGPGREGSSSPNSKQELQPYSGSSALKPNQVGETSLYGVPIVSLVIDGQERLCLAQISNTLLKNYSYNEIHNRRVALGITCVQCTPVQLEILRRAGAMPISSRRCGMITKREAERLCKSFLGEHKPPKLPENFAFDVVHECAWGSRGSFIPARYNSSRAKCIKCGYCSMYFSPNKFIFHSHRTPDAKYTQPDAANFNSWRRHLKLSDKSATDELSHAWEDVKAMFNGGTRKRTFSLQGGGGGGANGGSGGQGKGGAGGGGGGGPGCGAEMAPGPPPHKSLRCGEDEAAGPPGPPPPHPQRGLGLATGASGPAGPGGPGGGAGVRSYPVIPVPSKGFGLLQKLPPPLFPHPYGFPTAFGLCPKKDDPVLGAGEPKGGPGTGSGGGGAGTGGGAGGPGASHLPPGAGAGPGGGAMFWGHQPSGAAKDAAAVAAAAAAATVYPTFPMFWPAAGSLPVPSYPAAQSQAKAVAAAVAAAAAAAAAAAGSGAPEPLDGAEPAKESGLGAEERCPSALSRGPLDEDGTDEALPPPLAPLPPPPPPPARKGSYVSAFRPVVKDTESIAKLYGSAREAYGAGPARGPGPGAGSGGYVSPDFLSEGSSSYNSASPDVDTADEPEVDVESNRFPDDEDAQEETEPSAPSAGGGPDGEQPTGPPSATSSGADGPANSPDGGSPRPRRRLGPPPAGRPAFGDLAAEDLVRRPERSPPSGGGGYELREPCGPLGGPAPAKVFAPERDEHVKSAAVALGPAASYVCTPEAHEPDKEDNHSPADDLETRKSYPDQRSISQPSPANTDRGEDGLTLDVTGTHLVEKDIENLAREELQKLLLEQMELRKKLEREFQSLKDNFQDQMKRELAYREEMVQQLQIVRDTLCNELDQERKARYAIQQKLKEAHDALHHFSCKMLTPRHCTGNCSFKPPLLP
Assay: co-IP

Protein sequences, listed by entry. Tags and fused reporters are not part of them.
UniProt Q15796: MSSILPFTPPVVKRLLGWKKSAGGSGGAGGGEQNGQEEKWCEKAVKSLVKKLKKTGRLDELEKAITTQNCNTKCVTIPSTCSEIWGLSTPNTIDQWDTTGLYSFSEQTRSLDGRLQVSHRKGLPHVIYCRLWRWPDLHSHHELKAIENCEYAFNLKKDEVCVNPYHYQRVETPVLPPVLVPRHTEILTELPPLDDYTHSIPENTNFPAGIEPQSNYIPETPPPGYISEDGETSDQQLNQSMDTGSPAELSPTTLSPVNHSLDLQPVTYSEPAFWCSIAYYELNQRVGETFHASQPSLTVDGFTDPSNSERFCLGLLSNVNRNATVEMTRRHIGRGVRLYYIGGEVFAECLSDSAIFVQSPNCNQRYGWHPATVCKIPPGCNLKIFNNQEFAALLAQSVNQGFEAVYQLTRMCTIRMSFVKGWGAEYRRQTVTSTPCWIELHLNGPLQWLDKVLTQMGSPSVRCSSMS
UniProt P84022: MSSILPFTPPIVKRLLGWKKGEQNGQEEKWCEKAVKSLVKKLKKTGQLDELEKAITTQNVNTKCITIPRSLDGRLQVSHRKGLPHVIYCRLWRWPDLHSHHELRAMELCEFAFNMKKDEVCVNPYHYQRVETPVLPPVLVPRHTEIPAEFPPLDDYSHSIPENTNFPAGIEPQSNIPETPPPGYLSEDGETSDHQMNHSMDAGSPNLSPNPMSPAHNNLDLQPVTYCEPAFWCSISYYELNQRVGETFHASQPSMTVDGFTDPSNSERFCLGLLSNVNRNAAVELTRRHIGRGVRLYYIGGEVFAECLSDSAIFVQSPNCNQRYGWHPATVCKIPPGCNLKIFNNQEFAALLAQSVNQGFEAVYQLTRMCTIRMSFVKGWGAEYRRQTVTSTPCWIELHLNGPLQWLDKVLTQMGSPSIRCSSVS

binding | Substance
binds | Smad2 (from UniProt Q15796 1-467)
binds | Smad3 (from UniProt P84022 1-425)

— doi:10.1101/2022.02.22.481420
